In the supplement of paper PMC10849652:
This is one part of the list.

Chains of the proteins cited; added tags and fusions are not shown. Lines headed by an entry give the natural chain unless they say otherwise; changes in a name come on top.
UniProt Q96AB3: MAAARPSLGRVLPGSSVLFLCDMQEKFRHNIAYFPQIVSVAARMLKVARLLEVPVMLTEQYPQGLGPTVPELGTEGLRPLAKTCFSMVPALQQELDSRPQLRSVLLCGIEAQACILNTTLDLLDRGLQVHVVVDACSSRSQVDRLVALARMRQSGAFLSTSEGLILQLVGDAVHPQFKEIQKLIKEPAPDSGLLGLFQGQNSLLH
UniProt Q86U28: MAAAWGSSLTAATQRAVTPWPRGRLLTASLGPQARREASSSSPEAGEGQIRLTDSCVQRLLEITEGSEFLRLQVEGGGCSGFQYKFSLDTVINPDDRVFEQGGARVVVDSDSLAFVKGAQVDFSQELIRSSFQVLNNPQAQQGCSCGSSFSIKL
UniProt P50213: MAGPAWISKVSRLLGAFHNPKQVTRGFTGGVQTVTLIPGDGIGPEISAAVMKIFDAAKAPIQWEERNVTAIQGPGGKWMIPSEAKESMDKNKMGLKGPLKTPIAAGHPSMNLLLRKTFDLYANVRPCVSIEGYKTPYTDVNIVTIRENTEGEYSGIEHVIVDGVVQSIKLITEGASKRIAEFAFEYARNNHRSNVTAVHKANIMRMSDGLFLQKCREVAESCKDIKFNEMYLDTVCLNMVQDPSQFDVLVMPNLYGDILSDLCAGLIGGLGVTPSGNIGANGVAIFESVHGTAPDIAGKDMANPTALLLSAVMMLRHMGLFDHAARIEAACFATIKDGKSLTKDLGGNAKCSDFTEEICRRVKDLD
UniProt Q9NV31: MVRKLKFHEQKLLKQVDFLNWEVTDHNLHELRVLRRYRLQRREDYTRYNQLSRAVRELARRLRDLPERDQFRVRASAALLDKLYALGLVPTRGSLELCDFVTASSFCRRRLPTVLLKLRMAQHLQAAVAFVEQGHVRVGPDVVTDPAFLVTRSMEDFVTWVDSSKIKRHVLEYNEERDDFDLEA
UniProt P19823: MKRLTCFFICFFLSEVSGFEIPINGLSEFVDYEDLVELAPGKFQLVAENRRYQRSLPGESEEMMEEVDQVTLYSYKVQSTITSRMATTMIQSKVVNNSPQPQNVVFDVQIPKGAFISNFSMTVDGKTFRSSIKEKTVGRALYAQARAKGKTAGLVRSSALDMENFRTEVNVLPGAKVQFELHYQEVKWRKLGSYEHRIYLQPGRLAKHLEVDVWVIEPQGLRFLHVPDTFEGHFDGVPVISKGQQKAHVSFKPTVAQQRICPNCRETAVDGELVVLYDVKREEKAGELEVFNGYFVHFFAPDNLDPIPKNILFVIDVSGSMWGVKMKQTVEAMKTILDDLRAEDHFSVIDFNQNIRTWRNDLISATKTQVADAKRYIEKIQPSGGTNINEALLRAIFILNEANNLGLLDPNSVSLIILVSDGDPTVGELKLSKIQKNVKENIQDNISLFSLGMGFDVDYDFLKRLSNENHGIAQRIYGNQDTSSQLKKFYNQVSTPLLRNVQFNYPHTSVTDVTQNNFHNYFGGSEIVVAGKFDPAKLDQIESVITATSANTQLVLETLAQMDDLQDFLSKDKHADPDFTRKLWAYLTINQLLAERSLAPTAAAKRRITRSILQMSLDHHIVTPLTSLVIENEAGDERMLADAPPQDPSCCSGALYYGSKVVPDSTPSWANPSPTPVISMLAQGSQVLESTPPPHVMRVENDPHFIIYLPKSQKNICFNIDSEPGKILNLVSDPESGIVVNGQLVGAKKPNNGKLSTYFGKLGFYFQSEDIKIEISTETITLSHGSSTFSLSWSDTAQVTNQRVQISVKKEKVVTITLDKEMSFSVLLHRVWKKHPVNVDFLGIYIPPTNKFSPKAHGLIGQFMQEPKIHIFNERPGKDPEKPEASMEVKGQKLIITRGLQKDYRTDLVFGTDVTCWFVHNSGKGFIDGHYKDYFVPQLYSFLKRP
UniProt Q8TB96: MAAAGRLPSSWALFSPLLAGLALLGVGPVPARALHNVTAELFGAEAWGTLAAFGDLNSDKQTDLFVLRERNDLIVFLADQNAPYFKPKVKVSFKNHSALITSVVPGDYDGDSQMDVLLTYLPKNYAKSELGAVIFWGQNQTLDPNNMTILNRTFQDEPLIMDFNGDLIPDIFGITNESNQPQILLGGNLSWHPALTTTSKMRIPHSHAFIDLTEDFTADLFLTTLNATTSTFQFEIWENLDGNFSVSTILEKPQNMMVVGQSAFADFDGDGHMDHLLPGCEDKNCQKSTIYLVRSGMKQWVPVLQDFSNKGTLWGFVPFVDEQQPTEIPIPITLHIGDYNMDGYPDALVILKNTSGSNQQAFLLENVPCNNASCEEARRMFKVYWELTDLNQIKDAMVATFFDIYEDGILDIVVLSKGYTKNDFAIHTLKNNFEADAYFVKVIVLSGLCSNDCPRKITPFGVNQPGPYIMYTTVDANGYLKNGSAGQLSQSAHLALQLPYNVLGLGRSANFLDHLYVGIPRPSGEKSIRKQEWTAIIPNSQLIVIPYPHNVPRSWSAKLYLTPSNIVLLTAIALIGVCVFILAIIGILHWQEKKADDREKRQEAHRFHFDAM
UniProt Q14624: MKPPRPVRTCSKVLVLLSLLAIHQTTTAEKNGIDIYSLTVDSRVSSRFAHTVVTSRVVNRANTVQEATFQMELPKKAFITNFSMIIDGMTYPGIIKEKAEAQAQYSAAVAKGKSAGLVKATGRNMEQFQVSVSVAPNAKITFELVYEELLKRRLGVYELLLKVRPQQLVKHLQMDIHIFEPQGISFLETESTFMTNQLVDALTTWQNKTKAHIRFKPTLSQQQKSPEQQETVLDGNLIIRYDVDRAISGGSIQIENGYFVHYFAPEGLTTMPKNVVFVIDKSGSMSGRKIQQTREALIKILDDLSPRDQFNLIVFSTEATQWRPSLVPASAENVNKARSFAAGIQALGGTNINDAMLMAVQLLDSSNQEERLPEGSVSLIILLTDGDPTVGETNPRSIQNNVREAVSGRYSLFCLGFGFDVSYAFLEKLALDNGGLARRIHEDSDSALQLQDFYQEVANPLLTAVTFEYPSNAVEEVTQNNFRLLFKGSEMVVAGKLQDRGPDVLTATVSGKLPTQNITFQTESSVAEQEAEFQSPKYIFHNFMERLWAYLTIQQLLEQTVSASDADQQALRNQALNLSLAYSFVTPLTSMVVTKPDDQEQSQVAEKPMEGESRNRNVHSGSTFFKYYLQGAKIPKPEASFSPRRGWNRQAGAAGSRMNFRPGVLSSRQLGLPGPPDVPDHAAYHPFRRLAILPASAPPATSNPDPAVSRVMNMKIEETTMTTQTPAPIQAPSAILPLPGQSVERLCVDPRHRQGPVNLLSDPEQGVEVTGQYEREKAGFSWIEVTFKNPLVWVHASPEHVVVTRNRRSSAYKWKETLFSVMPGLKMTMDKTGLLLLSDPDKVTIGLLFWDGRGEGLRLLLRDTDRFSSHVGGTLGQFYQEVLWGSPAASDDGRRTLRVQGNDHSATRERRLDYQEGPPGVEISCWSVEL
UniProt Q96T52: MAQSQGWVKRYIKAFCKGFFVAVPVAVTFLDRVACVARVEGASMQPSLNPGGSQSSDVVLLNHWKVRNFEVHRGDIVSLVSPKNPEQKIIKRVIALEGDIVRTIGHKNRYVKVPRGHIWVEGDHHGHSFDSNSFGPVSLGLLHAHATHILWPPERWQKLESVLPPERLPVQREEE
UniProt Q9P2H3, whole entry, looked up: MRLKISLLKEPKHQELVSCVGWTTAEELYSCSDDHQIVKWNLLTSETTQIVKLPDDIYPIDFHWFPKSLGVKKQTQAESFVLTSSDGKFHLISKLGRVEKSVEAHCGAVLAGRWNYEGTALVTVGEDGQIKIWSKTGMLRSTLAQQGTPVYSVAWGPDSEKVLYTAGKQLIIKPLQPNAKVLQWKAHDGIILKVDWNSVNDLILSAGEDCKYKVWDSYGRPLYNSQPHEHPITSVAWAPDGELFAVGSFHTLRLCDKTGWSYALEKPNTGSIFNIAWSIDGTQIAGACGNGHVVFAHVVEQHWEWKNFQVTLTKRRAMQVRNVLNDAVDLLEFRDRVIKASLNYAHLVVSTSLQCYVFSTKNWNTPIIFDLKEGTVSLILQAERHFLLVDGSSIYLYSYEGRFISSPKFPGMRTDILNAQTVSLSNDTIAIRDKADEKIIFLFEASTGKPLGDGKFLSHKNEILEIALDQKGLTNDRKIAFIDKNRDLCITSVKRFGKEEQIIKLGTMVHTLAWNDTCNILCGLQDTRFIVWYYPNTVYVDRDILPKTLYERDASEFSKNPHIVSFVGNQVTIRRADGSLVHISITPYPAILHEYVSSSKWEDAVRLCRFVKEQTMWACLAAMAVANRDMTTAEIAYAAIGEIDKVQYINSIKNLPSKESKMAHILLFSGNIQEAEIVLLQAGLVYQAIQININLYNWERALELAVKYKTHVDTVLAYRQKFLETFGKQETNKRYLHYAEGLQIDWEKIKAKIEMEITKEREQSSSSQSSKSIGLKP
UniProt P48735: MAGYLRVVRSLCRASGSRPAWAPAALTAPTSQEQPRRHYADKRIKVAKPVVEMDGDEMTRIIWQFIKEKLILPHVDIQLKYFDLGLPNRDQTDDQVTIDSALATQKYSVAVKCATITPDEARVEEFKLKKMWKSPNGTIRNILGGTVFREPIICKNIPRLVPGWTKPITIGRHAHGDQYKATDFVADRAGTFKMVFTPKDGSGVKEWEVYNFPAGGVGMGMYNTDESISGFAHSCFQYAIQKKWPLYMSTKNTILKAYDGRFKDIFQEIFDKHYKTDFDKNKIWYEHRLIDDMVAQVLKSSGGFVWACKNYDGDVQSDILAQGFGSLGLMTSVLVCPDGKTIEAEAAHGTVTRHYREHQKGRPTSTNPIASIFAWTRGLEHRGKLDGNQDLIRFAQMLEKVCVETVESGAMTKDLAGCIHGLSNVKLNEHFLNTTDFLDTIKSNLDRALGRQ
UniProt Q5TA45, whole entry, looked up: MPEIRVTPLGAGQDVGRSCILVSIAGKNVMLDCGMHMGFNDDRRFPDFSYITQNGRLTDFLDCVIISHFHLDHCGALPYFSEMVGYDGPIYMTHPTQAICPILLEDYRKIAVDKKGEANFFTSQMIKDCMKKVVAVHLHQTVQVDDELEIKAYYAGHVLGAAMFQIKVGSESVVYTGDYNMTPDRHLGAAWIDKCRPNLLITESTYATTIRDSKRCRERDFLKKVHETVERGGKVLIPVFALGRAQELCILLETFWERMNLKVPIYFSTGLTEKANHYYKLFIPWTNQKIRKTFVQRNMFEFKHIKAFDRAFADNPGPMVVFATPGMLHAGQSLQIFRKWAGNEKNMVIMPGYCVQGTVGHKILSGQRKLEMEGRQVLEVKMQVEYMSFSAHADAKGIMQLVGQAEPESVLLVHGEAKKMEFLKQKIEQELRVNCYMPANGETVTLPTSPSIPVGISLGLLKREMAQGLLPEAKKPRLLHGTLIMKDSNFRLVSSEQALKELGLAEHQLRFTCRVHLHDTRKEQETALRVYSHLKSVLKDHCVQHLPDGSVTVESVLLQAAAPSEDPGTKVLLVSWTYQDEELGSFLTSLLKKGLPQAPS

Tests used:
Assay in all cases: log2 fold change, soluble protein after heating vs DMSO (PISA); higher = thermal stabilisation; K562 cells, 10 uM, 30 min; active = over 0.2 and 3.5 SD of the protein, either way, in both replicates (recomputed)
[1] = compound: CC1=C(C=C(C=C1)NC(=O)C2=CC(=CC=C2)C(C)(C)C#N)NC3=CC4=C(C=C3)N=CN(C4=O)C
Method in brief: (§1)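 Aliquots of K562 cells (2×10^6 cells/mL) treated with 10 μM compound for 30 min were heated for 3 min over 48°C-58°C. After pooling and extraction in PBS with 0.5% NP-40 at 4°C, soluble protein from a 21,000xg, 90 min spin was quantified by TMTpro 16plex LC-MS/MS with channel sums equalised. Thermal stability is expressed against control samples, from duplicates, as a log2 fold change.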

[2] = compound: CC1=C(C=C(C=C1)NC(=O)C2=CC(=CC=C2)N(C)C)NC(=O)C3=CC=C(C=C3)O
Method in brief: as §1

[3] = compound: CC1=CC=C(C=C1)SC2=C3C=C(SC3=CN=C2)C(=O)N
Method in brief: as §1

[4] = compound: CC1=NC(=CC=C1)C2=C(N=C(N2)C(C)(C)C)C3=CC4=NC=CN=C4C=C3
Method in brief: as §1

[5] = compound: CCCCN(Cc1ccc(C(=O)NO)cc1)C(=O)Nc1ccccc1 [Nexturastat A]
Method in brief: as §1

[6] = compound: CCCS(=O)(=O)Nc1ccc(F)c(C(=O)c2c[nH]c3ncc(-c4ccc(Cl)cc4)cc23)c1F [vemurafenib]
Method in brief: as §1

[7] = compound: CCCS(=O)(=O)Nc1ccc(F)c(C(=O)c2c[nH]c3ncc(Cl)cc23)c1F
Method in brief: as §1

[8] = compound: CCCc1cc(C)[nH]c(=O)c1CNC(=O)c1cc(-c2ccnc(N3CCN(C)CC3)c2)cc2c1cnn2C(C)C
Method in brief: as §1

[9] = compound: CCN(CC)Cc1ccc2cc(COC(=O)Nc3ccc(C(=O)NO)cc3)ccc2c1 [givinostat]
Method in brief: as §1

[10] = compound: CCN(CCCOc1ccc2c(Nc3cc(CC(=O)Nc4cccc(F)c4)[nH]n3)ncnc2c1)CCOP(=O)(O)O [barasertib]
Method in brief: as §1

[11] = compound: CC[C@@H]1C(=O)N(C)c2cnc(Nc3ccc(C(=O)NC4CCN(C)CC4)cc3OC)nc2N1C1CCCC1
Method in brief: as §1

[12] = compound: CC[C@@H]1C(=O)N(C)c2cnc(Nc3ccc(C(=O)N[C@H]4CC[C@H](N5CCN(CC6CC6)CC5)CC4)cc3OC)nc2N1C(C)C [volasertib]
Method in brief: as §1

[13] = compound: CC[C@H](C)N1C=C(C2=C(C=C(C=C21)C3=CN=C(C=C3)N4CCNCC4)C(=O)NCC5=C(C=C(NC5=O)C)C)C
Method in brief: as §1

[14] = compound: CC[C@H](C)[C@@H](C(=O)N[C@@H]([C@@H](C)O)C(=O)N[C@@H](CC(C)C)C(=O)[C@]1(CO1)C)NC(=O)[C@H]([C@@H](C)CC)N(C)C(=O)C [epoxomicin]
Method in brief: as §1

[15] = compound: CCn1c(C(=O)N(C2CC2)C2CC2)cc2c3c(ncn3C)c(Nc3cc(C)n(C)n3)nc21
Method in brief: as §1

[16] = compound: CN(C)CC(=O)Nc1ccc2[nH]c(=O)c3ccccc3c2c1
Method in brief: as §1

[17] = compound: CN(CCOC1=CC=C(C=C1)C[C@H]2C(=O)NC(=O)S2)C3=CC=CC=N3 (racemic) [rosiglitazone]
Method in brief: as §1

[18] = compound: CN1C2=C(C3=C1C(=O)N(N=C3)CC4=CC(=CC=C4)N)SC(=C2)S(=O)C
Method in brief: as §1

[19] = compound: CCn1cc(-c2ccnc3[nH]c(-c4cccc(CN(C)C)c4)cc23)c(-c2ccc(NC(=O)N(C)C)cc2)n1
Method in brief: as §1

[20] = compound: CN1CCC(CNc2ccc3ncc(-c4cccc(OC(F)(F)F)c4)n3n2)CC1
Method in brief: as §1

Row | Target | log2 fold change [1] | log2 fold change [2] | log2 fold change [3] | log2 fold change [4] | log2 fold change [5] | log2 fold change [6] | log2 fold change [7] | log2 fold change [8] | log2 fold change [9] | log2 fold change [10] | log2 fold change [11] | log2 fold change [12] | log2 fold change [13] | log2 fold change [14] | log2 fold change [15] | log2 fold change [16] | log2 fold change [17] | log2 fold change [18] | log2 fold change [19] | log2 fold change [20]
1 | ISOC2 (UniProt Q96AB3) | inactive: 0.094 | inactive: -0.096 | inactive: 0.032 | inactive: 0.04 | inactive: -0.016 | inactive: -0.084 | inactive: -0.016 | inactive: -0.011 | inactive: -0.302 | inactive: 0.043 | inactive: 0 | inactive: -0.062 | inactive: -0.017 | inactive: 0.209 | inactive: 0.059 | inactive: -0.04 | inactive: 0.022 | inactive: 0.19 |  | 
2 | ISCA2 (UniProt Q86U28) | inactive: -0.017 | inactive: 0 | inactive: -0.042 | inactive: -0.088 | inactive: -0.114 | inactive: 0.025 | inactive: -0.008 | inactive: -0.035 | inactive: -0.089 | inactive: 0.038 | inactive: 0.011 | inactive: -0.051 | inactive: 0.001 | inactive: 0.061 | inactive: -0.008 | inactive: 0.025 | inactive: 0.004 | inactive: -0.096 | inactive: -0.033 | inactive: -0.023
3 | IPO13 (UniProt O94829) | inactive: 0.068 | inactive: -0.013 | inactive: -0.008 | inactive: -0.027 | inactive: -0.03 | inactive: -0.01 | inactive: 0.047 | inactive: 0.009 | inactive: -0.011 | inactive: 0.044 | active: -0.367 | active: -0.291 | inactive: -0.081 | inactive: 0.048 |  | inactive: -0.013 |  | inactive: 0.048 | inactive: -0.084 | active: -0.333
4 | IPO4 isoform 2 (UniProt Q8TEX9) | inactive: 0.014 | inactive: 0.007 | inactive: 0.044 | inactive: 0.03 | inactive: 0.196 | inactive: 0.016 | inactive: 0.11 | inactive: 0.087 | inactive: 0.029 | inactive: 0.066 | inactive: -0.098 | inactive: -0.401 | inactive: 0.032 | inactive: 0.055 | inactive: -0.007 | inactive: 0.12 | inactive: 0.025 | inactive: 0.148 | inactive: 0.039 | inactive: -0.152
5 | INPPL1 (UniProt O15357) | inactive: -0.089 | inactive: -0.066 | inactive: -0.034 | inactive: 0.01 | inactive: 0.157 | inactive: -0.057 | inactive: 0.021 | inactive: 0.065 | inactive: 0.172 | inactive: 0.071 | inactive: -0.002 | inactive: -0.106 | inactive: -0.027 | inactive: -0.074 | inactive: 0.065 | inactive: 0.182 | inactive: 0.057 | inactive: 0.128 | inactive: -0.062 | inactive: 0.092
6 | IDH3A (UniProt P50213) | inactive: -0.029 | inactive: -0.003 | inactive: 0.031 | inactive: 0.015 | inactive: -0.084 | inactive: 0.009 | inactive: -0.009 | inactive: -0.014 | inactive: -0.06 | inactive: -0.006 | inactive: -0.031 | inactive: -0.01 | inactive: 0.004 | inactive: 0.063 |  | inactive: 0 |  | inactive: -0.064 | inactive: -0.027 | inactive: 0.033
7 | IMP3 (UniProt Q9NV31) | inactive: -0.193 | inactive: 0.639 | inactive: -0.135 | inactive: -0.388 | inactive: 0.349 | inactive: -0.001 | inactive: 0.058 | inactive: 0.02 | inactive: 0.227 | inactive: 0.075 | inactive: 0.06 | inactive: 0.156 | inactive: -0.202 | inactive: 0.053 | inactive: -0.263 | inactive: -0.05 | inactive: 0.036 | inactive: 0.224 | inactive: -0.203 | inactive: 0.008
8 | ITIH2 (UniProt P19823) | inactive: -0.089 | inactive: 0.458 | inactive: 0.123 | inactive: 0.093 | inactive: -0.088 | inactive: 0.157 | inactive: -0.091 | inactive: -0.25 | inactive: -0.034 | inactive: -0.064 | inactive: 0 | inactive: 0.107 | inactive: -0.121 | inactive: -0.489 | inactive: 0.04 | inactive: -0.072 | inactive: -0.012 | inactive: 0.301 | inactive: 0 | inactive: 0.077
9 | ITFG1 (UniProt Q8TB96) | inactive: -0.045 | inactive: -0.026 | inactive: -0.008 | inactive: 0.008 | inactive: -0.084 | inactive: 0.068 | inactive: -0.038 | inactive: 0.144 | inactive: -0.01 | inactive: 0.04 | inactive: 0.004 | inactive: -0.075 | inactive: -0.015 | inactive: -0.016 | inactive: -0.044 | inactive: -0.08 | inactive: 0.008 | inactive: -0.102 | inactive: 0.026 | inactive: 0.039
10 | IPO9 (UniProt Q96P70) | inactive: 0.029 | inactive: 0.033 | inactive: 0 | inactive: -0.001 | inactive: -0.075 | inactive: 0.079 | inactive: 0.075 | inactive: -0.022 | inactive: -0.018 | inactive: 0.025 | active: -0.227 | active: -0.611 | inactive: -0.003 | inactive: -0.031 |  | inactive: 0.009 |  | inactive: -0.007 | inactive: 0.034 | inactive: -0.077
11 | ITIH4 (UniProt Q14624) | inactive: -0.14 | inactive: 0.166 | inactive: 0.135 | inactive: 0.214 | inactive: 0.014 | inactive: 0.224 | inactive: 0.012 | inactive: -0.211 | inactive: -0.005 | inactive: 0.014 | inactive: -0.18 | inactive: -0.311 | inactive: -0.248 | inactive: -0.318 |  | inactive: -0.012 |  | inactive: 0.177 | inactive: 0.102 | inactive: -0.413
12 | IMMP2L (UniProt Q96T52) | inactive: -0.069 | inactive: -0.007 | inactive: 0 | inactive: 0.015 | inactive: -0.07 | inactive: -0.028 | inactive: -0.005 | inactive: -0.012 | inactive: 0.069 | inactive: 0 | inactive: -0.07 | inactive: 0.014 | inactive: -0.001 | inactive: -0.018 | inactive: -0.01 | inactive: -0.025 | inactive: 0.004 | inactive: -0.01 | inactive: 0.065 | inactive: -0.169
13 | IFT80 isoform 3 (UniProt Q9P2H3) | inactive: -0.023 | inactive: 0.038 | inactive: 0.004 | inactive: 0.005 | inactive: -0.021 | inactive: -0.042 | inactive: 0.039 | inactive: -0.013 | inactive: -0.104 | inactive: -0.004 | inactive: 0.039 | active: -0.232 | inactive: 0.072 | inactive: 0.053 |  | inactive: 0.095 |  | inactive: -0.084 | inactive: -0.09 | inactive: -0.157
14 | IDH2 (UniProt P48735) | inactive: 0.018 | inactive: -0.054 | inactive: -0.041 | inactive: 0.02 | inactive: -0.139 | inactive: -0.014 | inactive: 0.007 | inactive: -0.021 | inactive: -0.063 | inactive: 0.053 | inactive: 0.016 | inactive: 0.029 | inactive: -0.005 | inactive: 0.051 | inactive: -0.001 | inactive: -0.014 | inactive: -0.02 | inactive: -0.059 | inactive: -0.09 | inactive: -0.11
15 | INTS9 (UniProt Q9NV88) | inactive: 0.031 | inactive: -0.021 | inactive: -0.023 | inactive: 0.057 | inactive: -0.051 | inactive: 0.001 | inactive: 0.025 | inactive: -0.078 | inactive: -0.008 | inactive: 0.002 | inactive: -0.036 | inactive: -0.133 | inactive: 0.035 | inactive: 0.037 | inactive: -0.006 | inactive: -0.016 | inactive: -0.005 | inactive: -0.016 | inactive: -0.046 | inactive: 0.024
16 | IMPDH2 (UniProt P12268) | inactive: -0.023 | inactive: 0.025 | inactive: -0.04 | inactive: -0.02 | inactive: 0.023 | inactive: -0.01 | inactive: -0.046 | inactive: 0.02 | inactive: 0.015 | inactive: -0.059 | inactive: 0.036 | inactive: 0.237 | inactive: -0.01 | inactive: -0.03 | inactive: 0.014 | inactive: -0.034 | inactive: -0.05 | inactive: 0.08 | inactive: 0.089 | inactive: 0.006
17 | INTS11 (UniProt Q5TA45) | inactive: 0.036 | inactive: 0.012 | inactive: 0.003 | inactive: 0.013 | inactive: 0 | inactive: 0.038 | inactive: 0.041 | inactive: 0.004 | inactive: -0.027 | inactive: 0.01 | inactive: -0.028 | inactive: -0.128 | inactive: 0.05 | inactive: 0.051 | inactive: -0.01 | inactive: 0.03 | inactive: 0.016 | inactive: -0.024 | inactive: -0.015 | inactive: -0.012

Exported as tab-separated lines: entries from further up
Row	Target	log2 fold change [1]	log2 fold change [2]	log2 fold change [3]	log2 fold change [4]	log2 fold change [5]	log2 fold change [6]	log2 fold change [7]	log2 fold change [8]	log2 fold change [9]	log2 fold change [10]	log2 fold change [11]	log2 fold change [12]	log2 fold change [13]	log2 fold change [14]	log2 fold change [15]	log2 fold change [16]	log2 fold change [17]	log2 fold change [18]	log2 fold change [19]	log2 fold change [20]
9	ITFG1 (UniProt Q8TB96)	inactive: -0.045	inactive: -0.026	inactive: -0.008	inactive: 0.008	inactive: -0.084	inactive: 0.068	inactive: -0.038	inactive: 0.144	inactive: -0.01	inactive: 0.04	inactive: 0.004	inactive: -0.075	inactive: -0.015	inactive: -0.016	inactive: -0.044	inactive: -0.08	inactive: 0.008	inactive: -0.102	inactive: 0.026	inactive: 0.039
15	INTS9 (UniProt Q9NV88)	inactive: 0.031	inactive: -0.021	inactive: -0.023	inactive: 0.057	inactive: -0.051	inactive: 0.001	inactive: 0.025	inactive: -0.078	inactive: -0.008	inactive: 0.002	inactive: -0.036	inactive: -0.133	inactive: 0.035	inactive: 0.037	inactive: -0.006	inactive: -0.016	inactive: -0.005	inactive: -0.016	inactive: -0.046	inactive: 0.024
